Data on 2 substances can be found in paper PMC7921015, “Spatiotemporal GLP-1 and GIP receptor signaling and trafficking/recycling dynamics induced by selected receptor mono- and dual-agonists” (Molecular Metabolism, 2021).

Chains of the proteins cited; added tags and fusions are not shown. Residues count along the entry.
UniProt P43220, residues 24-463: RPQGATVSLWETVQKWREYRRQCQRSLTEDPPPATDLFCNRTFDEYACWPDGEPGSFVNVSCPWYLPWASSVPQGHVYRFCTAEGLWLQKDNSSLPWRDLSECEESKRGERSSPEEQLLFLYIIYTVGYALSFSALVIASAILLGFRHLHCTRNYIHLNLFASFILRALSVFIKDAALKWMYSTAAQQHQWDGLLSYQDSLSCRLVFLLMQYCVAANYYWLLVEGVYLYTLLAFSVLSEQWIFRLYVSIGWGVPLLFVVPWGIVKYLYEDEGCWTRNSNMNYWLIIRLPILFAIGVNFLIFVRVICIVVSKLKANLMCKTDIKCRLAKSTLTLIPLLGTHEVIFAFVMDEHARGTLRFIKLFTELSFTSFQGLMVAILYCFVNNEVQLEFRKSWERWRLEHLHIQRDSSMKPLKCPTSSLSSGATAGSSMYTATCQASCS
UniProt P49407: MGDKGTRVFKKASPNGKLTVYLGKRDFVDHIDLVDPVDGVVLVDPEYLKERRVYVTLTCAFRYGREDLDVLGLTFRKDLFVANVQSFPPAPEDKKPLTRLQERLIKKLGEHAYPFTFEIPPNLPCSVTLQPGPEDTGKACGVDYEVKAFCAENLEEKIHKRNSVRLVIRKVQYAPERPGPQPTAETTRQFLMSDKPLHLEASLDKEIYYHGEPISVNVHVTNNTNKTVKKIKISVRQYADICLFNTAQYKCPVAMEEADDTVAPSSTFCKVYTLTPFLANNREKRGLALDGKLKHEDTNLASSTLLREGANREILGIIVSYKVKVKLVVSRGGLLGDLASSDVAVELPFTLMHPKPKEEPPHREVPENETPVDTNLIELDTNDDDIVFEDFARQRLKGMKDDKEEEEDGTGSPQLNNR
UniProt P32121: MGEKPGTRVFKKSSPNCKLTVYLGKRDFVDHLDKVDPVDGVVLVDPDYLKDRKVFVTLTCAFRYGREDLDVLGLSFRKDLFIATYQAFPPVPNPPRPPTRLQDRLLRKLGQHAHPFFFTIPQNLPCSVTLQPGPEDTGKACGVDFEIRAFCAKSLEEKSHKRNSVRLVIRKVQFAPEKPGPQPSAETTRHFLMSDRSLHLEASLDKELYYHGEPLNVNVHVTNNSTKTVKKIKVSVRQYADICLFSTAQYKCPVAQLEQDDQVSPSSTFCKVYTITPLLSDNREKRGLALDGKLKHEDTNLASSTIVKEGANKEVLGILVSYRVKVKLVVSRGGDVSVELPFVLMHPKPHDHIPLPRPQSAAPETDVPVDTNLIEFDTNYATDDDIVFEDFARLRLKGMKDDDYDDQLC

The target of the assay is Human GLP-1R-GFP (human) (UniProt P43220). As to the kind of experiment: FRET or BRET; as a3, GLP-1R-GFP with β-arrestin1- or β-arrestin2-Rluc8 in live HEK293T, with tirzepatide as the agonist. Background: Bioluminescence resonance energy transfer reports proximity on the nanometre scale.

Results are given in words; binding and its absence hold for the method and conditions named. Binding seen in cells or lysates may run through a third protein.

For “β-arrestin 1-Rluc8 (from UniProt P49407 1-418)”, the binding result is “no binding (condition: with tirzepatide as the agonist)”.
To “β-arrestin 2-Rluc8 (from UniProt P32121 1-409)” belongs “no binding (condition: with tirzepatide as the agonist)”.
